Among all 52,000 sequences or so, about 210 (0.4%) were called active.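 Rule for the calls: active = gene whose silencing raises cell survival under the drug, median off-target-corrected z-score across its silencing RNAs 2 or more; inactive = the rest.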 The list shows a part of the results.
Assay: Resistance to Poly (ADP-Ribose) Polymerase inhibitor: Gene Identification via Genome-wide siRNA Screen
Settings: mouse BRCA2 R2336H ES cells, olaparib, CellTiter-Glo viability; active compounds read high
How it was run: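 Mouse BRCA2 R2336H ES cells were reverse-transfected with siRNA (20 nM final), treated at 48 h with 500 nM olaparib, and read by CellTiter-Glo after 72 h. Scores: MAD-based z per siRNA, median per gene, seed off-target correction.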

Row | Sequence | z-score
1 | GGCCGUGAUGCUAGAGAACTT against 2810405K07Rik | inactive: -0.355
2 | CCACACUUUUCAGUAUAAUTT against AI461788 | inactive: -0.6
3 | GGAACACAACUUCCUGUUCTT against BC037034 | inactive: -0.707
4 | GCAAUUCGAUUGAAGAUCUTT against Aoc3 | inactive: 0.978
5 | CCCUACUCCUCAGAACUUATT against Tbc1d10 | inactive: 2.05
6 | GGUCCCUACAGGGAACAAATT against Trim10 | inactive: -1.52
7 | GCCAUUAAUCUCACAUGUATT against A930001N09Rik | inactive: -0.871
8 | GGGAAGUCAAAGAAGAAUGTT against 2010106E10Rik | inactive: -0.647
9 | GCCGUUUAUCCUAUGAACUTT against Fign | inactive: 0.386
10 | GGAUUCUCAUGAUUGUAAATT against BC016423 | inactive: 0.0859
11 | GGUUCAAGAGGAGACUACUTT against BC005624 | inactive: -2.15
12 | GGCACUCAGUUCUUACCAGTT against BC029214 | inactive: -0.979
13 | GGAUGGCUACAUUGACUUCTT against Guca1a | inactive: -0.673
14 | GGAGGUCAAAGUAAACUGGTT against Tial1 | inactive: -2.28
15 | GCCAGUUUACACCAGAGUCTT against Tecta | inactive: -0.72
16 | GGUGUUUAAGGAUGAACAATT against L3mbtl3 | inactive: -0.264
17 | GGUGUAAAGGAAAGAAGAATT against 0610005I04 | inactive: -2.21
18 | GGCAUUUACCAAGUUCCUGTT against Olfr522 | inactive: 0.214
19 | CGAUCCUCAUCUUUAUAUATT against D430020F16 | inactive: 0.296
20 | GCGGGAAAAUGAGACCAAATT against Bin3 | inactive: 0.463
21 | CUUCUUGGUGGGUCUGACUTT against Taar7e | inactive: -1.64
22 | GGAUAACCACGACAAAAUATT against Ttc7 | inactive: -0.209
23 | GGCCACUUUACUGUAGCUGTT against LOC381062 | inactive: 0.316
24 | GCUCUUCUUCUUCUCCUUGTT against Olfr1411 | inactive: 0.3
25 | GGUAGUCAUCAGCUACUUCTT against Slc31a1 | inactive: 2.12
26 | GCACAGCUCUACAUAAUUUTT against Olfr312 | inactive: -1.11

Two entries from above in another layout.
Row,Sequence,z-score
3,GGAACACAACUUCCUGUUCTT against BC037034,inactive: -0.707
14,GGAGGUCAAAGUAAACUGGTT against Tial1,inactive: -2.28

Next part.

Row | Sequence | z-score
27 | GGACAAUUACUCCAAAAUUTT against Tnfsf10 | inactive: 0.0656
28 | GGAAAGAGGAAGAUAAAGUTT against 2310002L09Rik | inactive: -0.113
29 | GGAAAUGUCUUGUCACUAATT against Bzw1 | inactive: 0.0868
30 | GGUCUUCCGAGAAGGUUAATT against Chst4 | inactive: 0.0912
31 | GGUCCACUAAGAAGACAUATT against Fibcd1 | inactive: 0.978
32 | GGAGGAUAAGGAUGUCUCATT against A330021E22Rik | inactive: 0.827
33 | GUCCAGAUGGCUAAUUCUATT against Rpl23a | inactive: -3.2
34 | GCAUUAUCAGAACCAAGGGTT against 4930451F05Rik | inactive: -1.02
35 | GUUUAUCCUUAUGGGUUUATT against Olfr456 | inactive: 0.786
36 | GGAAAUGGCACAAGAAGUCTT against Tslp | inactive: -0.131
37 | GGCUAACAACUUCUACAUCTT against Wasf3 | inactive: -0.652
38 | GGAACUAACCAACGACUAATT against 2610019F03Rik | inactive: -0.643
39 | GGUGCUGUGUAAUCACCGATT against Psmc2 | inactive: -0.6
40 | CCUCAUAUAUCCCUAAUUATT against Camk1g | inactive: 0.254
41 | CCCAAACACCAACCAACUGTT against Unc93a | inactive: -2.13
42 | GCAAGUAUACACCUCUCAATT against Slc6a12 | active: 2.24
43 | GAUCCUUUCCUUCUUCCUCTT against Olfr1086 | inactive: -0.0159
44 | GGGCUAUCUUCUGAUUGGCTT against Zp3r | inactive: 0.633
45 | CGUCAAAGGAGACAGCUUUTT against 1810017N16Rik | inactive: -0.603
46 | GGAGGUCAGAAGGUGUGUUTT against Rad52 | inactive: -1.41
47 | GGAAAAGGGUAAACAAACATT against Car13 | inactive: 2.77
48 | GGAUUUCAGCUUCCAUUUUTT against Eif2b2 | inactive: 0.205
49 | CCACGGAUACUUUGAACAUTT against 1810054O13Rik | inactive: -0.467
50 | GCAUAAUUCAGUUGAUUACTT against LOC382105 | inactive: 1.49
51 | GGAUAGCAGCUGAGUUUUATT against Asb5 | inactive: 0.499
52 | GGCCUCCUAUAGACGGGAUTT against Vdac3 | inactive: -0.623

Row | Sequence | z-score
53 | GGAGGAAGAAAACAUCUCATT against Msh3 | inactive: -0.365
54 | GGGAAUGGCUAAUGUUUAUTT against Stk38l | inactive: -1.09
55 | GCUAUUUCAUUGGUUGGCUTT against Odf4 | inactive: 0.455
56 | GCAACGAAGACAAAUUAUUTT against Mid1 | inactive: 0.623
57 | GGAGGCUGUUGUGGAUCUUTT against Acin1 | inactive: -2.13
58 | GGGUUGGAUAGAAUAUUGUTT against Xkh | inactive: 0.135
59 | CGGUGGCAAAAUGAGAAGUTT against Cd79a | inactive: -0.334
60 | GGACUACGCAGUCUCUACATT against Ddah1 | inactive: 0.741
61 | CCCAGGACAUCGUCACAGATT against Prkx | inactive: -1.7
62 | GUAGUAACCAGAUCUUAUATT against V1rc2 | inactive: -0.0654
63 | GCUUGUGACUUAGAUUCUUTT against Rab8b | inactive: -0.428
64 | AUCAGGGAUCCUAACAUCATT against Ly6c | inactive: 1.48
65 | GGACCACCUGAAGAACCACTT against Plagl1 | inactive: -0.375
66 | CCAAGAUAUCGACUGAUAUTT against AI159731 | inactive: -0.437
67 | GCAAGAAAUGGACCGGUAGTT against Timm17a | inactive: -1.22
68 | GGUACACCAGGAAUAGACGTT against Prlpe | inactive: -0.216
69 | GCUCAUUGCACUUGCCAAGTT against Tcea2 | inactive: 0.978
70 | CCUAAACUCACUCUUGUGUTT against Chrna6 | inactive: -0.0561
71 | CCUGGCUAAGCUAGAGAAUTT against BC017634 | inactive: -0.551
72 | GGUGUUCAGGAGAUGAUGCTT against Ris2 | inactive: 0.835
73 | GGGUCCUAAGGGAUUUAUUTT against Klf16 | inactive: 0.377
74 | CCAUUAACGUAAAUUCUGUTT against AI505652 | inactive: 0.701
75 | CGGUUACUUGCUCUCCUCCTT against 1700091F14Rik | inactive: 0.893
76 | GCACUUCGCGCAGUCUUCUTT against 6430526N21Rik | inactive: -1.04
77 | GGUGGCCAUUCUUCUGUUCTT against Dnclc1 | inactive: -0.201
78 | CCAUGAGGCGUAUCAUUUUTT against Phlda3 | inactive: 1.57

Row | Sequence | z-score
79 | GCAAAUUAUUGAGAGCCUGTT against Prlpm | inactive: -1.22
80 | AGCAGGAGUUCGAACAUGGTT against Hoxb4 | inactive: -1.21
81 | CCUACUCGUCUCUUUCACCTT against 0610007A15Rik | inactive: 0.85
82 | GCCUGCACUGUUGAACUAGTT against Tomm40l | inactive: -0.012
83 | GCUUACCGAUGGGAUGACGTT against Omd | inactive: 0.0811
84 | GGUUUGCUGAGAAAUUAACTT against Btg3 | inactive: 0.682
85 | CCUUAGCUGUCCUUGUGGUTT against LOC545475 | inactive: 0.496
86 | GUGAUGAGAGGCCUUUCACTT against V1rc4 | inactive: 1.75
87 | CCCAUUAUUGGCACUACAATT against LOC434285 | inactive: -0.98
88 | GGAACAGAUACAGAAAUCCTT against Cstf2 | inactive: 0.739
89 | GCCUUCCGCUACCUUCUUATT against Ccl19 | inactive: 1.08
90 | GCUCUUACCACUGAUAGGATT against 6330579B17Rik | inactive: 0.111
91 | GGAAGGGUAUAGCCAGUACTT against 1500006O09Rik | inactive: 0.896
92 | GGAGUUUCCUAGUAAGGCCTT against LOC432552 | inactive: 1.16
93 | GCAAUUACCUCUGAAAGGCTT against 1700011H14Rik | inactive: 0.742
94 | GGUUUCUGAACAAAGCCAGTT against Mospd1 | inactive: -1.28
95 | GGGUUCUAUAGUCUCCACCTT against LOC544763 | inactive: 0.642
96 | CGGUAUAGUAGAUACUUAATT against Picalm | inactive: 0.107
97 | CCUUCUAAUCUUUUUGCCUTT against Polr3k | inactive: 1.21
98 | GCUCAUUCUCAAAGGCUUATT against Rdh12 | inactive: -0.689
99 | GGGAUGGACAUCUUGUUUUTT against Eif4a1 | inactive: -1.86
100 | CCAUGGACCCUUUUUUUGGTT against BC020025 | inactive: 1.64
101 | GCCAUUGCUAUCCAUCGUGTT against Bat1a | inactive: -2.21
102 | GGCAGCCCUCAAGUUAAUCTT against Zfp612 | inactive: -1.81
103 | GGAUAUGGAAGAAGUUGUGTT against Olfr1089 | inactive: 0.483
104 | GGACUUCUUACUGGAAUCATT against AI315119 | inactive: 0.036

Reformatted tab-delimited: entries from further up.
Row	Sequence	z-score
100	CCAUGGACCCUUUUUUUGGTT against BC020025	inactive: 1.64
101	GCCAUUGCUAUCCAUCGUGTT against Bat1a	inactive: -2.21
102	GGCAGCCCUCAAGUUAAUCTT against Zfp612	inactive: -1.81
103	GGAUAUGGAAGAAGUUGUGTT against Olfr1089	inactive: 0.483
104	GGACUUCUUACUGGAAUCATT against AI315119	inactive: 0.036
